“And” between values parts separate entries of the source, which are not always exact repeats. Equal values may be shown once. The list shows a part of the results. The main result of the screen is listed elsewhere. These columns were measured beside it and carry no call. The list favours compounds with an active or inconclusive main result. Words in brackets tell the shape of the fitted curve; partial curves, single points and poor fits give uncertain potencies.

This assay is described as follows: qHTS Assay to Find Inhibitors of Chronic Active B-Cell Receptor Signaling. The note with it: ABC-DLBCL IkBa-CBG/CBR reporter, luminescence ratio (green luciferase fused to IkBa over red control in TMD8 lymphoma cells), 4 h. The gist of the method: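 TMD8 human ABC-DLBCL cells with doxycycline-inducible IκBα–green luciferase fusion and unfused red luciferase, in 0.5% FBS medium; compounds up to 46 uM, 4 h at 37C. Green/red luminescence ratio, filter-overlap corrected, fitted to concentration-response curves.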

[1] abbreviates: measured here: CBR red luminescence, cell number.
Setting [2] is: measured here: IkBa-CBG green luminescence.

As usually defined, the AC50 is the concentration giving half of the maximal activity seen. `N#Cc1c(NC(=O)CCn2cnc3ccccc3c2=O)oc(-c2ccccc2)c1-c1ccccc1`: the AC50 by setting is: under setting [1], 14.6 µM [falling, partial curve]; under setting [2], 9.2 µM [rising, partial curve, poor fit].
With `O=C(CCSc1nnc2scc(-c3ccccc3)n12)Nc1nc(-c2ccccc2)ns1`, under setting [1], the AC50 was 35.5 µM [rising, partial curve, poor fit].
For the compound `COC(=O)C1=C(C)N(Cc2ccccc2)C(=NCCc2cccnc2)N[C@H]1c1ccc(Br)cc1`, the half-maximal activity concentration (AC50) under setting [1] is 31.6 µM [falling, single point] and 16.4 µM [falling, partial curve, poor fit].
For the compound `Cc1oc(-c2ccc3c(c2)OCCO3)cc1C(=O)NC(CCC(=O)O)C(=O)O` (centres undefined), under setting [1], the AC50 is 35.5 µM [falling, single point].
Still for that read-out and setting: then `CCNC(=O)c1ccc(C23CC4CC(CC(C4)C2)C3)o1`, with 7.94 µM [rising, partial curve].
Regarding `NC(=O)C1CCN(C(=O)CSc2nc(O)cc(=O)[nH]2)CC1`, the AC50 under setting [1] is 14.1 µM [rising, partial curve, poor fit].
On the same count and under the same terms, with `CCOC(=O)c1ccc(NC2=CC(=O)C(=O)c3ccccc32)cc1` the figure was 0.562 µM [falling, partial curve, poor fit].
Regarding `COc1ccc(-n2cccc2/C=C/[N+](=O)[O-])cc1`, the AC50 is 6.51 µM [falling, partial curve] under setting [1] and 29.1 µM [rising, partial curve, poor fit] under setting [2].
With `CC(/C=C1\SC(=O)N(CCCC(=O)O)C1=O)=C\c1ccccc1`, the half-maximal activity concentration (AC50) under setting [1] is 0.146 µM [falling, full curve].
The same measure, in the same setting: then `CC(=O)c1nn(-c2cccc(Br)c2)cc1C(=O)c1ccc(Cl)cc1`, with 18.4 µM [rising, single point]; and `O=[N+]([O-])c1ccccc1S(=O)(=O)N1CCSCC1`, with 2.91 µM [rising, single point]; and `C/C(=N/NC(=O)c1ccco1)c1ccc(NC(=O)c2ccc(Br)o2)cc1`, with 8.91 µM [falling, partial curve].
As for `Nn1c(-c2ccc(O)cc2)nnc1-c1ccc(O)cc1`, the half-maximal activity concentration (AC50) under setting [1] is 35.5 µM [falling, single point].
On the same count and under the same terms, then `Cc1ccc(OCC(=O)O/N=C(\N)Cc2ccc([N+](=O)[O-])cc2)cc1C`, with 6.31 µM [rising, single point].
Consider `COc1ccccc1N1CCN(C(=O)c2ccc3nc(-c4ccco4)c(-c4ccco4)nc3c2)CC1`, for which the half-maximal activity concentration (AC50) under setting [2] was 16.4 µM [rising, partial curve, poor fit].
As for `Cc1ccc(C(=O)c2c3ccccc3[n+]([O-])n2CCC(=O)O)cc1`, under setting [1], the concentration at half-maximal activity (AC50) was 14.6 µM [rising, partial curve, poor fit].
Same read-out and setting: then `O=C(COc1ccc(S(=O)(=O)N2CCCC2)cc1)Nc1ccc(F)cc1`, with 2.24 µM [falling, full curve]; and `CCCCOP(=O)(OCCCC)C1(NS(=O)(=O)c2ccccc2)C=CC(=O)c2ccccc21` (centres undefined), with 35.5 µM [falling, single point]; and `COc1ccccc1NC(=O)N1CCN(c2cccc(C(F)(F)F)c2)CC1`, with 2.91 µM [rising, single point].
Same read-out and setting: with `COc1ccc(C(=O)Nc2ccc3c(c2)Cc2ccccc2-3)cc1` the figure was 6.31 µM [rising, single point]; with `COc1cc(NC(=O)C/C(C)=N/NC(=O)C(=O)NC2CCCCC2)c(OC)cc1Cl`, 11.2 µM [falling, single point]; with `CCOC(=O)C1C(=O)N(C(=O)c2ccc(OC)cc2)CC1c1ccccc1` (centres undefined), 1.46 µM [falling, partial curve, poor fit].
For `COc1cc(S(=O)(=O)Nc2ccc(C)cc2)ccc1N=Cc1c(C)[nH]n(-c2ccc(C)cc2)c1=O`, the concentration at half-maximal activity (AC50) under setting [2] was 20.6 µM [rising, partial curve, poor fit].
With `COc1cc(NC(=O)COC(=O)CCc2cc(OC)c(OC)c(OC)c2)cc(OC)c1`, the half-maximal activity concentration (AC50) under setting [1] is 3.98 µM [falling, full curve, poor fit].
Still for that read-out and setting: then `COc1cc(CNCCCN2CCOCC2)cc(Br)c1OCc1ccc(Cl)cc1`, with 35.5 µM [falling, single point]; and `CC(=O)N1CCc2c(sc(NC(=O)CCS(=O)(=O)c3ccccc3)c2C#N)C1`, with 0.794 µM [rising, full curve, poor fit].
Still for that read-out and setting: then `COc1ccc(C2c3ccc4ccccc4c3Oc3ncn(CCO)c(=N)c32)cc1` (centres undefined), with 35.5 µM [falling, single point]; and `CC1(C)Cc2c(sc(NC(=O)Nc3ccccc3)c2C(N)=O)CO1`, with 20 µM [falling, single point]; and `O=C(OCc1csc(-c2ccccc2)n1)c1ccccc1O`, with 11.2 µM [falling, partial curve, poor fit].
The same measure, in the same setting: with `N/C(=N\OCC(=O)Nc1ccccc1)c1nonc1N` the figure was 29.1 µM [falling, single point]; with `Cc1ccc(C(=O)c2ccc([N+](=O)[O-])cc2)c(C)c1`, 6.51 µM [rising, single point]; with `N#Cc1sc2nc(N3CCCCC3)c3c(c2c1N)CCCC3`, 4.61 µM [rising, full curve, poor fit].
As to `O=C(NNC(=S)Nc1ccccc1Cl)c1ccccc1`, under setting [1], the AC50 is 4.47 µM [falling, partial curve].
Turning to `CCOC(=O)C(CSCC(=O)c1ccc(Cl)cc1)NC(=O)OC(C)(C)C` (centres undefined), the half-maximal activity concentration (AC50) under setting [1] was 4.11 µM [falling, single point].
As for `COc1cc(C(CCN2CCOCC2)c2c(OC)cc(OC)c3c(-c4ccccc4)cc(=O)oc23)cc(OC)c1OC` (centres undefined), the half-maximal activity concentration (AC50) reads like this: under setting [1], 6.51 µM [rising, single point]; under setting [2], 18.4 µM [falling, partial curve].
Turning to `O=C1CS/C(=N/N=C/c2ccco2)N1Cc1ccc(F)cc1`, the AC50 under setting [1] is 17.8 µM [falling, single point].
Regarding `CCOc1ccccc1N(C)C(=O)c1cc2c(=O)n(CC)c3ccccc3c2s1`, under setting [1], the AC50 was 11.2 µM [falling, single point].
With `CC1CCN(S(=O)(=O)c2ccc(C(=O)Nc3ccccc3-c3nc4ccccc4[nH]3)cc2)CC1`, under setting [1], the concentration at half-maximal activity (AC50) was 1.64 µM [rising, full curve, poor fit].
Consider `Cc1ccc2oc(-c3cccc(NC(=S)NC(=O)c4cccs4)c3)nc2c1`, for which the AC50 under setting [1] was 2.91 µM [rising, partial curve].
Same read-out and setting: then `Cc1oc(-c2ccccc2)cc1C(=O)Nc1cccc2ccccc12`, with 11.2 µM [falling, single point].
The same measure, in the same setting: then `O=C(/C=C/c1ccccc1)N/C(=C/c1ccccc1)C(=O)Nc1ccccc1O`, with 0.112 µM [falling, full curve, poor fit]; and `O=C(Nc1nnc(-c2ccc3c(c2)CCCC3)o1)c1ccccc1`, with 29.1 µM [falling, single point].
Still for that read-out and setting: with `O=C(Nc1nc2nccc(-c3ccccc3)n2n1)c1ccccc1` the figure was 2.51 µM [falling, full curve, poor fit]; with `C#CCOCCOCCOCCNc1nc(N2CCN(C(=O)CCCCCCCCCCNC(=O)[C@H]([C@@H](C)CC)n3cc(CCCCCN)nn3)CC2)nc(N2CCN(C(=O)CCCCCCCCCCNC(=O)[C@H](CO)n3cc(CCCCCN)nn3)CC2)n1`, 29.1 µM [rising, single point].
With `COc1ccc(N=C2C(=Nc3ccc(OC)cc3)N(c3ccc(OC)cc3)C(=S)N2c2ccccc2)cc1`, the AC50 under setting [1] is 23.1 µM [falling, single point].
Still for that read-out and setting: with `O=C(C1CCCN(S(=O)(=O)c2ccc(Cl)cc2)C1)N(Cc1cccs1)C1CC1` (centres undefined) the figure was 25.9 µM [falling, partial curve, poor fit].
On the same count and under the same terms, with `Cc1ccc(C(=O)NCCSCc2ccc(Cl)cc2Cl)cc1[N+](=O)[O-]` the figure was 5.17 µM [rising, single point].
On the same count and under the same terms, with `CCc1cc(-c2[nH]ncc2-c2ccc3c(c2)OCO3)c(O)cc1O` the figure was 7.94 µM [falling, partial curve]; with `COc1ccc(Cl)cc1-c1nc(SCC(=O)NC(C)C(C)C)n[nH]1` (centres undefined), 35.5 µM [falling, single point]; with `Cc1cccnc1NC(=S)Nc1ccc(Br)cc1Cl`, 7.08 µM [rising, full curve].
In the case of `O=C(Nc1cc(=O)[nH]c(=O)[nH]1)c1cc(Cl)ccc1Cl`, the AC50 reads like this: under setting [1], 11.2 µM [rising, partial curve]; under setting [2], 12.6 µM [falling, single point].
As to `COc1ccccc1C(=O)Nc1c[nH]c(=O)[nH]c1=O`, under setting [1], the AC50 is 28.2 µM [falling, single point].
Same read-out and setting: with `CCN(Cc1ccccc1)c1ccc(/C=C(\C#N)c2ccccn2)cc1` the figure was 11.6 µM [rising, partial curve]; with `CC(c1cccs1)N(C)Cc1nc(CCc2ccccc2)no1` (centres undefined), 7.94 µM [rising, partial curve].
Still for that read-out and setting: with `CCN1CCN(c2ccc(S(=O)(=O)N3CCCCC3)cc2NC(=O)/C=C/c2cccc(OC)c2OC)CC1` the figure was 25.1 µM [falling, single point].
On the same count and under the same terms, with `Cn1c(CSCc2ccc(F)cc2)nnc1SCC(=O)Nc1nccs1` the figure was 2.82 µM [falling, full curve]; with `C=CCNc1nc2c(c(=O)[nH]c(=O)n2C)n1CC(O)COc1ccc2ccccc2c1` (centres undefined), 0.708 µM [rising, full curve, poor fit]; with `CC1CCCC(C)N1S(=O)(=O)c1ccc(NC(=O)CCn2cnc3ccccc3c2=O)cc1` (centres undefined), 2.59 µM [rising, full curve, poor fit].
With `Cc1cc(C(=O)COC(=O)Cc2n[nH]c(=O)c3ccccc23)c(C)n1-c1ccc2c(c1)OCCO2`, the half-maximal activity concentration (AC50) under setting [1] is 29.1 µM [falling, single point].
Still for that read-out and setting: then `CCOC(=O)CCC(=O)Nc1cc(S(=O)(=O)N2CCOCC2)ccc1N1CCCCC1`, with 16.4 µM [rising, partial curve, poor fit].

For the origin of these results see PubChem BioAssay AID493014 (National Center for Advancing Translational Sciences (NCATS), 2011).
